The exact form of at least one protein or probe is not confirmed. Weaker means in comparison with the reference protein, sequence or condition of that experiment. At least one verdict was read from the data and is not stated in words by the source. Where a protein sequence is shown, tags need not be part of it.
Biological target: T1, KIF1C(CC4+IDR)-mNG (Homo sapiens) (UniProt O43896)
T1 sequence (looked up): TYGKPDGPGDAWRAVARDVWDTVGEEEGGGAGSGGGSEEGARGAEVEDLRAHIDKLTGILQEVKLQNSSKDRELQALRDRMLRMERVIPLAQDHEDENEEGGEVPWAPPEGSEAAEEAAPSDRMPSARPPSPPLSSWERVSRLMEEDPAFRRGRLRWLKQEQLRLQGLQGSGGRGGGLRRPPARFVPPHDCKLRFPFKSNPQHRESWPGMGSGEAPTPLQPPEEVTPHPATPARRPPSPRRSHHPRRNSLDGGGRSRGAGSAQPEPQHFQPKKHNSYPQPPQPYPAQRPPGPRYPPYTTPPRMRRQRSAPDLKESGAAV
Assay: in vitro condensate recruitment (fluorescence microscopy)
Settings: 15-60 nM RNA, 100 nM protein, 100 mM NaCl, only GU-rich selectively enriched; methylation at each nucleotide (printed mA, probably 2'-O-methyl); 100 nM KIF1C(CC4+IDR)-mNG in 100 mM NaCl buffer, no crowding agent; recombinant protein; residues 785-1103; protein details: C-terminal mNeonGreen, His-SUMO removed by TEV; label: 5'-Cy5

Sequence: AAAAAAAAAAAAA [polyA RNA oligo, Cy5-A13]
- binding result: binds more weakly

From PMC11294625, “The kinesin-3 KIF1C undergoes liquid-liquid phase separation for accumulation of specific transcripts at the cell periphery”
